According to article PMC12136450 (PLOS Biology, 2025):
Results are given in words; binding and its absence hold for the method and conditions named. Some binding calls cover weakened binding; strength is not graded here. For part of these data: Where a sequence is shown, tags or fusion partners need not be part of it.

B1: strep-tagged Cpi1 (wild type) (natural protein)
chain: MGIVFTNHNIDLLSVEFDEITKNCNYTFSVDGETAIFTARISIIRNIKGIKYSEELDKFIMSIMPLQPKVSKILGGVTWDCICGKEVGFPVRLIGK
notes: source: E. coli BL21 (DE3), pETDuet-1, purified (streptavidin resin, gel filtration)

Assays:
[1] = molecular target: T1, strep-tagged Cpi1 (wild type) (Escherichia coli strain ATCC 11775) (UniProt P0DXY0); experiment: pull-down; both purified
T1 sequence: B1 chain

[2] = molecular target: T2, Cpi1 (cognate immunity protein of Cpe1), co-expressed with Cpe1tox (Escherichia coli strain ATCC 11775) (UniProt P0DXY0); experiment: crystal structure; both purified
T2 sequence: B1 chain

[3] = molecular target: T3, His-tagged Cpe1tox^C362A (catalytically inactive toxin domain) (Escherichia coli strain ATCC 11775) (UniProt P0DXX9); experiment: pull-down; […]; 20 mM Tris-HCl pH 7, 300 mM NaCl, 1 mM DTT; […]; both purified
T3 sequence: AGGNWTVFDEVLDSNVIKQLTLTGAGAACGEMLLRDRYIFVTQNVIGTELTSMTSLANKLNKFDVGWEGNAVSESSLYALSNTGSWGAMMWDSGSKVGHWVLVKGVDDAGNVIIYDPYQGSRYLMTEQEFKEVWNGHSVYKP

Molecule	binding [1]	binding [2]	binding [3]
Cpe1tox (toxin domain of cysteine protease effector 1), His-tagged (from UniProt P0DXX9 338-479) (domain or fragment)	binds	binds	–
B1	–	–	binds
